From patent US20250129114 (published 2025) come the findings set out here.

The nature of the data set: general procedure: Fmoc solid-phase peptide synthesis; RA ProTide LL; RA MBHA PS LL; Fmoc-Gly-Wang-ProTide; Fmoc-Ala-Wang-ProTide. To be noted: whole synthesis, UPLC, scale of the general procedure 0.1 mmol; run 1.

Regarding thymosin, the “crude purity (method not given)” value stood at 69%.
